According to patent publication US20200062856A1 (XDCEXPLORER SHANGHAI, published 2020):
Positions count from the first letter of the chain named. Results are given in words; binding and its absence hold for the method and conditions named. Some binding calls cover weakened binding; strength is not graded here. One block for each binder: values may come before it.

What was measured:
[1] = target: T1, cynomolgus TPBG protein, full-length, on the cell surface (cynomolgus) (UniProt Q4R8Y9); experiment: FACS on CHOK1-cTPBG cells (cynomolgus TPBG), fluorescent secondary antibody, mean fluorescence intensity
T1 sequence (looked up): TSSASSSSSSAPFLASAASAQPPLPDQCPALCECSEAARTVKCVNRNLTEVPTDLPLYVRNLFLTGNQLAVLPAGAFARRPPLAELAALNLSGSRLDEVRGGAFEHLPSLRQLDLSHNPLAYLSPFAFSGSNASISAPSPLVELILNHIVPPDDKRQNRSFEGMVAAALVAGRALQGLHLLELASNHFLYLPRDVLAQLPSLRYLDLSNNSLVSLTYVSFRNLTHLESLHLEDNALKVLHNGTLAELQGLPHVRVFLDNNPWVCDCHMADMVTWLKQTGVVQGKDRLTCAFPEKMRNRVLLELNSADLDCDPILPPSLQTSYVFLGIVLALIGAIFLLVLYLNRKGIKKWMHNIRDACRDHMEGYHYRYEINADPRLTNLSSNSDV

[2] = target: T1, cynomolgus TPBG protein, full-length, on the cell surface (cynomolgus); experiment: FACS on CHOk1-cTPBG cells
[3] = target: T1, cynomolgus TPBG protein, full-length, on the cell surface (cynomolgus); experiment: FACS on CHOK1-cTPBG cells

binding [1]: binds
B1: Chimeric antibody 28D4 (antibody, V domains shown)
VH: DVQLVESGGGLVRPGGSLKLSCAASGFTFSNYVMSWARQSPEKRLEWVAEISTGGSHTYYSDTVTGRFTISRDNAKKALYLEMSSLRSEDTAIYYCIMFYYGSSYSMDYWGQGTSVTVSS
VL: DIQMTQSTSSLSASLGDRITISCRASQDIRNYLNWYQQKPDGTVKLLIYHTSRLHSGVPSRFSGSGSGTDYSLTISNLEQEDIATYFCQQGDTLPLTFGAGTRLELK
notes: Mouse variable domains on human IgG1 heavy and human kappa light constant regions; also called c28D4; TPBG chimeric antibody 28D4

binding [2]: binds
B2: mouse anti-TPBG monoclonal antibody 28D4E6A9 (antibody, V domains shown)
VH: B1 VH
VL: B1 VL
notes: Mouse antibody purified from hybridoma supernatant; also called 28D4E6A9 (28D4 for short)

binding [1]: binds
B3: Chimeric antibody 12B12 (antibody, V domains shown)
VH: DVQLVESGGGLVQPGGSRKLSCAASGFTFSNFGMHWVRQAPEKGLEWVAYISSGSTSFYYADTVKGRFTISRDNPKNTLFLQMTSLRSEDTAMYYCSRTNSLLRGFFDAWGAGTTVTVSS
VL: DIVLTQSPASLAVSLGQRATISCRASQSVSSSSYTYLHWYQQKPGQPPKLLIKSASNLESGVPARFSGTGSGTDFTLNIHPVEEEDTATYYCQHSWEIPLTFGAGTKLELK
notes: Mouse variable domains on human IgG1 heavy and human kappa light constant regions; also called c12B12; TPBG chimeric antibody 12B12

binding [2]: binds
B4: mouse anti-TPBG monoclonal antibody 12B12C7C3 (antibody, V domains shown)
VH: B3 VH
VL: B3 VL
notes: Mouse antibody purified from hybridoma supernatant; also called 12B12C7C3 (12B12 for short)

binding [3]: binds
binding [1]: binds
B5: Humanized antibody 12B12-12 (antibody, V domains shown)
VH: EVQLVESGGGLVQPGGSLRLSCAASGFTFSNFGMHWVRQAPGKGLEWVSYISSGSTSFYYADTVKGRFTISRDNAKNSLYLQMNSLRDEDTAVYYCARTNSLLRGFFDAWGQGTTVTVSS
VL: DIVLTQTPLSLSVTPGQPASISCRASQSVSSSSYTYLHWYLQKPGQPPQLLIKSASNLESGVPDRFSGSGSGTDFTLKISRVEAEDVGVYYCQHSWEIPLTFGQGTKLEIK
notes: also called h12B12-12

binding [3]: binds
binding [1]: binds
B6: Humanized antibody 12B12-15 (antibody, V domains shown)
VH: B5 VH with L11V, G16R, S49A, A75S, S78T, D88A
VL: B5 VL
notes: also called h12B12-15

binding [3]: binds
binding [1]: binds
B7: Humanized antibody 28D4-3 (antibody, V domains shown)
VH: EVQLVESGGGLVKPGGSLRLSCAASGFTFSNYVMSWIRQAPGKGLEWVAEISTGGSHTYYSDTVTGRFTISRDNAKKSLYLQMNSLRAEDTAVYYCIMFYYGSSYSMDYWGQGTTVTVSS
VL: DIQMTQSPSSLSASVGDRVTITCRASQDIRNYLNWYQQKPGKAPKLLIYHTSRLHSGVPSRFSGSGSGTDFTFTISSLQPEDIATYYCQQGDTLPLTFGQGTRLEIK
notes: also called h28D4-3

binding [3]: binds
binding [1]: binds
B8: Humanized antibody 28D4-4 (antibody, V domains shown)
VH: B7 VH with I37A, G44R
VL: B7 VL
notes: also called h28D4-4

binding [3]: binds
binding [1]: binds
B9: Humanized antibody 28D4-7 (antibody, V domains shown)
VH: B7 VH
VL: B7 VL with F71Y
notes: also called h28D4-7
